Data taken from PubChem BioAssay AID1508600 (Functional Genomics Laboratory (NCATS/FGL), 2020).
Hit rate of the full screen: of about 53,000 sequences, about 3,700 (7%) were called active.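 Rule for the calls: active = gene knockdowns whose robust z-score for IL-1 alpha signal is at least 2 or at most -2, so actives lie on both sides; inactive = the rest.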 Some of the results follow.

Test: Components of the Cytosolic LPS Sensing Pathway: Gene Identification via Genome-wide siRNA Screen;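 note: robust z of the log signal after scaling to non-targeting control siRNA wells of the plate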
Settings: RAW264.7 macrophages, IL-1a HTRF, actives lie on both sides, screened at 100 nM (by protocol), cells primed 5 h with Pam3CSK4 first
Procedure, shortened: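 IL-1a HTRF of supernatants after 24 hour LipidA transfection of Pam3CSK4-primed (5 hours) RAW264.7 cells, 48h post-siRNA transfection (100 nM). Scores: percent of plate negative-control median, then log-based robust z-score.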

| Sequence | z-score |
| --- | --- |
| GCUGAACCAAUGUAGAAUATT against Vps37c | inactive: -0.59 |
| GCAUCUCAGGGAUUUAGAUTT against Marchf7 | inactive: 1.65 |
| GGCUCACUCAUUUGUCAGATT against Soat1 | inactive: 0.0924 |
| GGUGAAGAAAGCGGAAAAGTT against Cstf3 | inactive: -0.19 |
| GGUUGAAACUUUUUCUGGUTT against Rps7 | inactive: -0.0138 |
| GGACAACUAGCUUCUUGUATT against Trdmt1 | inactive: -1.09 |
| CGGUCAAGUUUUGAUUCCATT against Prkaa2 | inactive: -0.785 |
| GGACCUUAUUUGAAGCCUATT against Btnl9 | inactive: -0.596 |
| CGGAUGAGGUUUCUUUUAUTT against Phkb | inactive: 0.415 |
| GCCUGCAUUCCAUAACACUTT against Prom1 | inactive: 0.192 |
| GGGAGACGCAAAGCCUUAUTT against Olfr1238 | inactive: 0.644 |
| GCGACUGUUUCUAUCCCAATT against Rnaseh2c | inactive: -0.208 |
| GGAUGCCAAUUUGGCUAAGTT against Hoatz | inactive: 1.7 |
| GGAGUCUUGCUCUAUAUAATT against Arpc5 | inactive: 1.26 |
| GGCGGAGAAGGAGAUUUUATT against Cldn10 | inactive: 0.424 |
| GGAAAUGCCACAGCUGUACTT against Foxn4 | inactive: -0.0146 |
| CCGGACAAGUCGUUUUUUATT against Nuf2 | inactive: -1.91 |
| GGUUUUUGUGUGGAUCUAUTT against Sec62 | inactive: 0.775 |
| GGAGGAUUCCCUUGUUCAATT against Rhbdd2 | inactive: 1.46 |
| GGAGACCAGUACCCUCUGATT against Cmklr1 | inactive: -0.422 |
| GGAUAGAUUUUAGGUAUUGTT against Htr5b | inactive: -0.475 |
| GGACUUCCACCGAAAGUUUTT against Rasd1 | inactive: -0.0323 |
| GGAUUAUGUGAAAACUCUGTT against Sgpl1 | inactive: 1.71 |
| GCAUCUUCGAGGUUUCAAATT against Ccdc136 | inactive: -0.514 |
| GGCUAUAGGUUUCUGGGAATT against Fzd6 | active: 4.94 |
| GACCUUCCUGUCUGAGAUCTT against Ssbp4 | inactive: 1.1 |
| CCACAUUGUUUGGUAACCUTT against Olfr1489 | inactive: -0.631 |
| GGGUUUCACUUUCAGUGGGTT against Nol9 | inactive: 0.498 |
| GGAGUUCAACGAGAUCUGUTT against Hus1b | inactive: 0.315 |
| CCAGAAAACUCAGUUUGAATT against Magi3 | inactive: 0.518 |

Two records drawn at random from the list so far, as already listed:

| Sequence | z-score |
| --- | --- |
| GGAGGAUUCCCUUGUUCAATT against Rhbdd2 | inactive: 1.46 |
| GGACCUUAUUUGAAGCCUATT against Btnl9 | inactive: -0.596 |
